These results are taken from the supplement of paper PMC11003180.

Common to all, as to assay: drug sensitivity score (DSS) from 5-dose viability curve (DSS (area-based score, 0 = no response)); higher = more sensitive (stronger viability inhibition); extreme values may be limits of the assay
The subject of assay [1] is MDCK wild-type - doxycycline. To be noted: doxycycline: none; 72 h. Put shortly:
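An oncology library of 528 drugs was pre-spotted at five doses (1-10,000 nM) in 384-well plates, and parental MDCK cells without doxycycline were added at 2000 cells/well. The plates were kept at 37 °C for 72 h. Drug sensitivity scores were obtained by fitting dose-response curves in the Breeze pipeline to CellTiter-Glo viability readings scaled per plate between vehicle and positive controls.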

Assay [2] deals with MDCK p60AmotL2-inducible + doxycycline (p60AmotL2 expressing). To be noted: doxycycline: 10 ng/mL; 72 h. Put shortly: (§1)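 Parental MDCK cells and MDCK cells with doxycycline-inducible p60AmotL2, both given doxycycline at 10 ng/mL in the medium before plating, were dispensed at 2000 cells/well onto pre-spotted 384-well plates. The plates held an oncology library of 528 drugs at five doses (1-10,000 nM) and were incubated 72 h at 37 °C. Viability was read as CellTiter-Glo luminescence and scaled per plate between vehicle and positive controls. Drug sensitivity scores came from dose-response curve fits in the Breeze pipeline.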

For assay [3], the system named is MDCK wild-type + doxycycline. The following applies: doxycycline: 10 ng/mL; 72 h. Put shortly: as §1

Take `C[C@@H]1C[C@H](N)C[C@H](c2ccncc2NC(=O)c2ccc(F)c(-c3c(F)cccc3F)n2)C1` [PIM-447]: the figures for the drug sensitivity score in assay [1], in assay [2] and in assay [3] were 0, 3.1 and 3.4, respectively.
